In US20060025326A1, “Method for treating carrier particles and its use” (LAB Pharma Oy, priority 2002, published 2006):

Assay: Microcalorimetric study of amorphous material
Assay type: physicochemical
Details: microcalorimetric study / detected in this work

In the case of `COc1ccc(CC(C)NCC(O)c2ccc(O)c(NC=O)c2)cc1` (stereo not shown) [formoterol], the “amorphous (unstable) material” value is reported as “contains percents of amorphous material”.
